Results on one compound are retold here after the supplement of paper PMC10503962.

For the assay, the system named is Trichuris muris adult worms. Nature of the assay: median motility score (Paragon pixel variance) of adult worms (arbitrary units); higher = more motile worms. The following applies: 24 h.

The other results are listed elsewhere or left out. Many values rest on one well or one pass, so single values are uncertain.

As for `COc1ccc(Cc2nccc3cc(OC)c(OC)cc23)cc1OC` [papaverine], the median motility score was found to be 1520 (20 µM), 3370 (50 µM) and 3770 (100 µM).
